# Experimental data: patent US20160108414A1, “GROWTH-RELATED ENOX PROTEINS FROM PLANTS WITH YIELD ENHANCEMENT POTENTIAL, SEQUENCES AND METHODS” (Mor-NuCo Enterprises, Inc., priority 2013, published 2016)
# For at least one compound, name, drawing or mass did not settle the structure.
# Tested on: recombinant Arabidopsis ENOX1
# Assay: NADH oxidase activity of IEF-purified recombinant Arabidopsis ENOX1
# Format: biochemical
# Method: Cells were centrifuged at 5,000 g for 6 min. Pellets were then resuspended in 20 mM Tris-HCl, pH 8.0, containing 0.5 mM PMSF, 1 mM benzamidine and 1 mM 6-aminocaproic and lysed by three passages through a French pressure cell (SLM Aminco) at 20,000 psi. Expression of the recombinant Arabidopsis ENOX1 of about 14 kDa was confirmed by SDS-PAGE with silver staining. Transformed cells were stored at −80° C. in a standard glycerol stock solution. The Arabidopsis ENOX1 proteins were further purified on Criterion IEF gels (Bio-Rad, Hercules, Calif.). The IEF gel was cut into seven equal segments. The pH represented by each slice was based on IEF standards (Bio-Rad). The slices were soaked in 15 mM Tris-Mes buffer, pH 7, at 4° C. for overnight with shaking. The gel-free extracts were assayed for ENOX1 activity.
# Oxidation of NADH was determined spectrophotometrically from the disappearance of NADH measured at 340 nm in a reaction mixture containing 25 mM Tris-MES (pH 7.2), 100 μM GSH, 1 mM KCN to inhibit mitochondrial oxidase activity, 150 μM NADH and the enzyme at 37° C. with temperature control (±0.5° C.) and stirring. Prior to assay, 1 μM reduced glutathione was added to reduce the protein in the presence of substrate. […] Activities were measured using paired Hitachi U3210 or paired SLM Aminco 2000 spectrophotometers both with continuous recording. […]
structure (smiles),measurement,setting,value
Oc1ccc(C2=Cc3ccc(O)cc3OC2)cc1 [Phenoxodiol],Effect on ENOX1 activity eluted from the IEF gel,concentrations of Table 5,no inhibition was observed
same,NADH oxidase activity,"inhibitor 10 μM, average of 3 determinations ± SD, None = 2.7 ± 0.4",3.7 ± 0.05 µmol/min/mg
